Measurements reported in PubChem BioAssay AID1259308 (NCATS, 2017)

- Assay: 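Genes whose loss raises luciferase production in HEK293 cells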 (primary screen)
- System: human HEK293 embryonic kidney cells stably expressing firefly luciferase (HEK-CMV-Luc2-Hygro)
- Knock-down reagent: single siRNA against human genes, 0.8 pmol siRNA per well
- Time to read-out: 72 h
- Detection: 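Luciferase light (ONE-Glo) measured on one replicate plate set and viability (CellTiter-Glo) on the other, scaled to a negative control siRNA, with robust z-scores and luciferase per cell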
- Reading the numbers: total luciferase, z-score and total luciferase, % of control: higher = more reporter protein produced
- Call rule: 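Active when the median/MAD z-score for overall luciferase is greater than 3; a gene was taken forward for validation with new siRNAs if at least two of its three siRNAs passed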
- Meaning of the calls: active = raised luciferase; inactive = no rise
This is an unselected part of about 59,000 reagents. In the full data, about 1,510 (2.6%) are marked active. 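Calls use total luciferase alone and ignore viability, so some active siRNAs may act by altering cell number.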 Unmarked entries are inactive. The numbers tell different reagents against one gene apart. Not all columns of the deposit are shown. Reagent sequences are not shown.

H2BC17 #1: total luciferase, z-score = 0.749; total luciferase, % of control = 96.8
H2BC17 #2: total luciferase, z-score = 0.00911; total luciferase, % of control = 82.1
H2BC17 #3: total luciferase, z-score = -1.03; total luciferase, % of control = 61.5
CHRDL1 #1: total luciferase, z-score = 0.718; total luciferase, % of control = 96.2
CHRDL1 #2: total luciferase, z-score = -0.0567; total luciferase, % of control = 80.8
CHRDL1 #3: total luciferase, z-score = -2.12; total luciferase, % of control = 39.7

Only “total luciferase, % of control”, for 2 of the entries above:
H2BC17 #3	61.5
CHRDL1 #1	96.2

The results go on.
BYSL #1: total luciferase, z-score = -0.378; total luciferase, % of control = 74.4
BYSL #2: total luciferase, z-score = 2.66; total luciferase, % of control = 135
BYSL #3: total luciferase, z-score = 0.867; total luciferase, % of control = 99.1
ZNF793 #1: total luciferase, z-score = 0.189; total luciferase, % of control = 85.6
ZNF793 #2: total luciferase, z-score = -0.77; total luciferase, % of control = 66.6
ZNF793 #3: total luciferase, z-score = 0.934; total luciferase, % of control = 100
